{"source": "paper PMC4604493", "molecules": {"B1": {"name": "Toca1 (protein, UniProt Q5T0N5 1-605)", "chain": "MSWGTELWDQFDSLDKHTQWGIDFLERYAKFVKERIEIEQNYAKQLRNLVKKYCPKRSSKDEEPRFTSCVAFFNILNELNDYAGQREVVAEEMAHRVYGELMRYAHDLKTERKMHLQEGRKAQQYLDMCWKQMDNSKKKFERECREAEKAQQSYERLDNDTNATKADVEKAKQQLNLRTHMADENKNEYAAQLQNFNGEQHKHFYVVIPQIYKQLQEMDERRTIKLSECYRGFADSERKVIPIISKCLEGMILAAKSVDERRDSQMVVDSFKSGFEPPGDFPFEDYSQHIYRTISDGTISASKQESGKMDAKTTVGKAKGKLWLFGKKPKPQSPPLTPTSLFTSSTPNGSQFLTFSIEPVHYCMNEIKTGKPRIPSFRSLKRGWSVKMGPALEDFSHLPPEQRRKKLQQRIDELNRELQKESDQKDALNKMKDVYEKNPQMGDPGSLQPKLAETMNNIDRLRMEIHKNEAWLSEVEGKTGGRGDRRHSSDINHLVTQGRESPEGSYTDDANQEVRGPPQQHGHHNEFDDEFEDDDPLPAIGHCKAIYPFDGHNEGTLAMKEGEVLYIIEEDKGDGWTRARRQNGEEGYVPTSYIDVTLEKNSKGS"}}, "key": {"[1]": {"biological_target": "WASP_(138-320) (human) (UniProt P42768)", "experiment": "two-hybrid; yeast two-hybrid analysis of WASP_(138-320) or WASP_(138-320)^ΔI30 with known WASP PRR binding proteins; data not shown"}, "[2]": {"biological_target": "WASP-His (Wiskott-Aldrich Syndrome protein, His-tagged) (human) (UniProt P42768)", "experiment": "pull-down; His-tag pull-down from HEK293T cells transfected with WIP together with vector, WASP-His or WASP^ΔI30-His; probed for the presence of WIP"}, "[3]": {"biological_target": "WASP^ΔI30-His (WASP with the I30 region, a.a. 158-187, deleted, His-tagged) (human) (UniProt P42768)", "experiment": "pull-down; His-tag pull-down from HEK293T cells transfected with WIP together with vector, WASP-His or WASP^ΔI30-His; probed for the presence of WIP"}}, "note": "Results are given in words; binding and its absence hold for the method and conditions named. For part of these data: In cells and extracts the contact can be indirect. Some binding calls cover weakened binding; strength is not graded here.", "data": [{"molecule": "Fgr (from UniProt P09769 1-529)", "values": [{"measurement": "binding", "setting": "[1]", "value": "binds"}]}, {"molecule": "Fyn (from UniProt P06241 1-537)", "values": [{"measurement": "binding", "setting": "[1]", "value": "binds"}]}, {"molecule": "Grb2 (from UniProt P62993 1-217)", "values": [{"measurement": "binding", "setting": "[1]", "value": "binds"}]}, {"molecule": "WIP (from UniProt O43516 1-503)", "values": [{"measurement": "binding", "setting": "[2]", "value": "binds"}, {"measurement": "binding", "setting": "[3]", "value": "binds"}]}, {"molecule": "B1", "values": [{"measurement": "binding", "setting": "[1]", "value": "binds"}]}]}
